Measured values as given in paper doi:10.1101/2025.02.23.639735 (bioRxiv, 2025).
No constants are given. Whether binding was seen depends on the method and setting. Some entries that bind do so weakly or less than the wild type.

Molecular target: T1, UPF2-AL (human, UniProt Q9HAU5 1015-1106, 15N-labelled (15N/13C for the assignments) in the NMR experiments)
T1 sequence (looked up): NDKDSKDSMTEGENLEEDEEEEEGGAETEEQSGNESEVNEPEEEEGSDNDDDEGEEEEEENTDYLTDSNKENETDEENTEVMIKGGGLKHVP
Test: NMR titration

B1: 3’hExofl (enzyme, UniProt Q8IV48 1-349)
chain: MEDPQSKEPAGEAVALALLESPRPEGGEEPPRPSPEETQQCKFDGQETKGSKFITSSASDFSDPVYKEIAITNGCINRMSKEELRAKLSEFKLETRGVKDVLKKRLKNYYKKQKLMLKESNFADSYYDYICIIDFEATCEEGNPPEFVHEIIEFPVVLLNTHTLEIEDTFQQYVRPEINTQLSDFCISLTGITQDQVDRADTFPQVLKKVIDWMKLKELGTKYKYSLLTDGSWDMSKFLNIQCQLSRLKYPPFAKKWINIRKSYGNFYKVPRSQTKLTIMLEKLGMDYDGRPHCGLDDSKNIARIAVRMLQDGCELRINEKMHAGQLMSVSSSLPIEGTPPPQMPHFRK
  binding: binds weakly
